# According to the supplement of paper PMC3334620:
# Over roughly 33,000 sequences, “E-score (-0.5 to 0.5)” has its median near -0.0034; the highest 2% begin near 0.25. The list shows a part of the results.
# Biological target: T1, Yap3 (UniProt P38749)
# T1 sequence: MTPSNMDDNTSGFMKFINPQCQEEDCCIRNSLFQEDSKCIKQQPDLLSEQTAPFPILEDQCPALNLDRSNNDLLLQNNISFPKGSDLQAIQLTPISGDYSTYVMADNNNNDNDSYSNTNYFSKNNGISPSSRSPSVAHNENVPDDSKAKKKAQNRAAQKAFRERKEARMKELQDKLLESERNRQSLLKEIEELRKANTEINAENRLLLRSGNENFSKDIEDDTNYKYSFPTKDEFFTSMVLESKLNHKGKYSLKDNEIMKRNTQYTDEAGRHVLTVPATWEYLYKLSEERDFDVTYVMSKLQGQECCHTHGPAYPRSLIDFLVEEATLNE
# Experiment: PBM E-score (8-mer binding enrichment) (E-score (-0.5 to 0.5)); higher = stronger / more preferred TF binding
# Conditions: protein concentration: 100 nM; construct: GST-full length
# Procedure, shortened: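 For each ungapped eight-base word taken together with its reverse complement, the Universal PBM Analysis Suite assigned an E-score. Binding data came from GST-tagged yeast transcription factors, applied at about 100-200 nM, on universal all-10-mer Agilent arrays made double-stranded by primer extension. Fluorescent anti-GST marked bound protein, and scans were normalised with masliner.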
row,Sequence,PBM E-score
1,GGAAAACA,0.243
2,CTCTATCA,0.00374
3,ACTGACCT,-0.0214
4,CAAACGTA,0.132
5,GTACCGTA,0.0667
6,GCTTGCCC,-0.375
7,GCGTCAGC,-0.246
8,CGCTATAC,0.0139
9,AGGCTACC,-0.232
10,ATGTTTTG,0.172
11,CAGTACGG,-0.0221
12,GTCTCAGA,-0.0813
13,CGATAAAC,-0.0635
14,TGCAGAAA,0.18
15,AGGACAAA,0.167
16,GCGCGATA,0.099
17,CACGTTCA,-0.0368
18,CCCGGTTC,-0.304
19,AAACCGCA,-0.182
20,GACCCTGA,-0.17
21,TCGGGACA,-0.21
22,AGTAGGTG,-0.044
23,CATCTATC,-0.0241
24,AAATTGCA,0.138
25,GTCTAACA,-0.104

row,Sequence,PBM E-score
1,CGGAACGA,0.188
2,ATTGAGTC,-0.0197
3,GTCTACGA,-0.227
4,AGTTGTCC,-0.0231
5,CGATCTGA,-0.0186
6,ACAGCGGC,-0.0324
7,ACATATGT,0.167
8,AGCTCCCC,-0.312
9,GACCGCTC,-0.232
10,CTCTCCAG,-0.355
11,ACGGTGTC,-0.155
12,CCGGCTTA,-0.048
13,AAACCCGT,-0.143
14,ATCTTCAC,-0.00342
15,ACGCTTCA,-0.133
16,CCCTACAG,-0.0996
17,GATTCAGA,0.0691
18,CTATGCTA,0.0834
19,ATATCGAT,0.223
20,AAAGCTTC,-0.13
21,GCTTCCCA,-0.0981
22,CTATCAAC,0.0852
23,TTAATGAA,0.187
24,GAGTCTAC,-0.163
25,CAGGGGGA,-0.338

row,Sequence,PBM E-score
1,ATGTTGAC,0.15
2,ACAGCAGA,-0.0637
3,CCAAAGGG,-0.182
4,CCTACACG,-0.251
5,CCTTGCGC,0.00663
6,GGACATCC,-0.169
7,CCAATCCC,0.0775
8,CAACTCTC,-0.044
9,CGTATGTC,-0.0305
10,ACTATCTC,0.145
11,AAGTTAAC,0.193
12,CAAATTTG,0.144
13,TACACCCA,0.0384
14,GGCGTTTA,0.0247
15,GTTTACTA,0.196
16,CAGTGCAA,0.0797
17,GTTTCTAA,0.0152
18,GTTGACGA,0.109
19,CACCATAC,-0.0118
20,ATAAATTA,0.365
21,ACCAGTCA,0.0862
22,CTCTATTA,0.0839
23,CAGAGGGG,-0.395
24,ACTGTACT,0.0814
25,ATCATGTC,0.0372

row,Sequence,PBM E-score
1,ATAATAGG,0.157
2,CGTTGGCC,-0.213
3,ACCCTGTA,0.00489
4,AAGGCTAG,0.0764
5,CCAACAAG,-0.0107
6,GTAATGTA,0.2
7,AGTGGTCC,-0.146
8,CCTGGTAC,-0.0396
9,CTATTTTA,0.251
10,ATCGTTAA,0.17
11,GTTACACA,-0.0287
12,AGGGTTCA,-0.0847
13,CGTTACAG,0.011
14,CGCATAGC,-0.137
15,GCGGAGCA,-0.206
16,AAGCACTC,-0.109
17,AATTTCAC,0.194
18,ACTCGTCT,0.058
19,ACATCTTA,-0.0189
20,ACACTGTC,-0.0325
21,ACGAAGAT,0.0321
22,CGGGTTAG,-0.155
23,AATTGAGC,-0.0534
24,CCAACTCC,0.117
25,TCGGGGAA,0.0864

row,Sequence,PBM E-score
1,CCCACGAC,-0.287
2,GGGAACAA,0.213
3,CGAGGGAA,0.00016
4,CTATTGGC,-0.119
5,GAGTGAGC,-0.0403
6,AGTCCGCG,-0.172
7,AAGGTCAG,-0.112
8,CACAAGAA,0.169
9,ATAGTGTA,0.141
10,GGGATACC,-0.27
11,AAGCAAAC,0.096
12,AGTTTTCA,0.184
13,AAGCTTCT,0.00604
14,AGGATGGG,-0.185
15,GGTCGACA,-0.0148
16,CATAGCAG,-0.148
17,AGGTCTAG,-0.186
18,AGATATAG,0.136
19,ACGCGAGT,0.087
20,TGTCTGAA,0.168
21,GATACCAC,0.0539
22,ACGAGCTC,-0.0766
23,ACGGACAG,-0.147
24,ACCATTCC,0.0791
25,AACGTACC,-0.00955

# Single entries from the entries so far:
# PBM E-score, GATACCAC is entered as 0.0539
# PBM E-score, ACCATTCC is entered as 0.0791
# PBM E-score, AGTCCGCG is entered as -0.172
# PBM E-score, CACAAGAA is entered as 0.169
# PBM E-score, GGGAACAA is entered as 0.213
# PBM E-score, AGATATAG is entered as 0.136

# The listing continues:

row,Sequence,PBM E-score
1,AGCAAGGG,-0.0892
2,GAGCCGGA,-0.213
3,CTTTGTAA,0.27
4,AAAGAACG,0.151
5,CCTCCCCA,-0.0831
6,AACATTGC,-0.159
7,CGTTGGAA,-0.0926
8,AGTAACCG,0.0701
9,CAATGAAA,0.077
10,CGTAGGGA,-0.167
11,AACTCAGC,-0.0226
12,GTCATCCA,0.0539
13,ATTCGGCC,-0.00866
14,GGGATTAC,0.00382
15,TGGTTAAA,0.132
16,CTCAGAGA,-0.0892
17,CATTTAGA,0.0705
18,ACTTTCCA,0.125
19,TATGCATA,0.101
20,CTCTCGTC,-0.101
21,CGCACATC,-0.0346
22,GAAGTGCC,-0.0109
23,ATATCGTG,0.0998
24,AATGGCCG,-0.0799
25,AAGGAACA,-0.126

row,Sequence,PBM E-score
1,ATTGTATC,0.0413
2,CCCCAGGC,-0.433
3,ATCAACCG,-0.0115
4,ACAGAGGG,-0.1
5,ATTGGGAC,0.0878
6,ACACTGCC,0.125
7,CTCACGGA,-0.107
8,ATGCTTTG,-0.00817
9,CGTAAAAA,0.128
10,AGACACAA,0.11
11,AGGACCCT,-0.358
12,GTGAATAA,0.242
13,CCTCTACC,-0.0767
14,ACCTTTCT,0.0996
15,ATAAATGC,0.0282
16,CTTGTGCC,-0.145
17,ATAATTAT,0.302
18,ACCCTCCT,-0.256
19,GATTGAGC,0.0624
20,CAGTAGCA,-0.0517
21,GTTAAAGA,0.09
22,AATCAGGC,0.00403
